Laboratory results as given in patent US20150150787A1 (Pearl Therapeutics, Inc., priority 2013, published 2015).
For at least one compound, name, drawing or mass did not settle the structure.

Test: Aerosol performance by Next Generation Impactor, BD/GP/FF cosuspension MDIs (Example 2)
Type: physicochemical
Details: NGI 30 LPM, versus mono/dual cosuspensions or other strengths

With CCCC1O[C@@H]2C[C@H]3[C@@H]4CCC5=CC(=O)C=C[C@]5(C)[C@H]4[C@@H](O)C[C@]3(C)[C@]2(C(=O)CO)O1 (stereo partly shown) [BD, budesonide] the “Coformulation effect (aerosol performance) when formulated in the triple cosuspensions” value was “no coformulation effect was observed”.
